In data set [1] the test system is AREc32 cells. Nature of the data set: Cytotoxicity with ImageXpress high-content imaging, MitoOxTox.
In data set [2] the test system is mitochondrial membrane potential (MMP) in AREc32 cells. Put plainly: Disruption of mitochondrial membrane potential (m-MPI red/green ratio), MitoOxTox.
Data set [3] has as its system MMP disruption in AREc32 cells. Nature of the data set: Iceberg modeling (24DNP-EQbio, 24DNP-EQchem) for MMP disruption.
The mark [4] stands for this setting: specificity ratio of MMP effect: IC10,baseline/EC10 (eq 5).
The mark [5] stands for this setting: toxic ratio: IC10,baseline/IC10 (ImageXpress) (eq 2).

Read-outs that look alike come from different tables or passages of the source.

The compound `O=[N+]([O-])c1ccc(O)c([N+](=O)[O-])c1` [2,4-Dinitrophenol] gave a TR in data set [1] of 2.9. In addition, the SRbaseline in data set [2] (setting [4]) was 102.
On the same counts, the results for `CCCCOCCO` [2-Butoxyethanol] are 1.0 and 1.3.
The compound `Cc1cc(O)ccc1Cl` [4-Chloro-3-methylphenol] showed a TR in data set [1] of 1.3.
On to `CCCCCc1ccc(O)cc1` [4-Pentylphenol], for which, in data set [1] (setting [5]), the TR was 1.0. The SRbaseline in data set [2] (setting [4]) is reported as 14.0.
For `CCCCCC[C@H]1C(=O)O[C@H](C)[C@H](NC(=O)c2cccc(NC=O)c2O)C(=O)O[C@@H](C)[C@@H]1OC(=O)CC(C)C` [Antimycin A], in data set [1] (setting [5]), the TR is 2.4.
In the case of `CO/C=C(/C(=O)OC)c1ccccc1Oc1cc(Oc2ccccc2C#N)ncn1` [Azoxystrobin], the “contribution of individual chemical to 24DNP-EQbio” value in data set [3] (WWTP effluent samples) is “up to 0.12%”. Further, in data set [2] (setting [4]), the SRbaseline was 64.0.
Consider `COc1ccc2cc3[n+](cc2c1OC)CCc1cc2c(cc1-3)OCO2` [Berberine], for which the TR came to 53.2 in data set [1] (setting [5]) and 53 in data set [1] (toxic ratio: IC10,baseline/IC10 (ImageXpress) (eq 2), listed as berberine). For the same compound, the SRbaseline in data set [2] (setting [4]) stood at 285426.
`N#Cc1cc(Br)c(O)c(Br)c1` [Bromoxynil] gave a TR in data set [1] of 4.9. Besides, the SRbaseline in data set [2] (setting [4]) is reported as 41.6.
As to `N#CC(C#N)=NNc1cccc(Cl)c1` [Carbonyl cyanide 3-chlorophenyl-hydrazone], the TR in data set [1] (setting [5]) came to 55.4. Also, in data set [2] (setting [4]), the SRbaseline turned out to be 518.
On the same counts, the results for `N#CC(C#N)=NNc1ccc(OC(F)(F)F)cc1` [Carbonyl cyanide 4-(trifluoromethoxy)phenylhydrazone] are 88.4 and 2016.
With `CC1=C(C(=O)Nc2ccccc2)SCCO1` [Carboxin], the SRbaseline in data set [2] (setting [4]) came out at 4.7.
The same measure, in the same setting: the same measure for `Cc1ccc(-c2c(Cl)nc(C#N)n2S(=O)(=O)N(C)C)cc1` [Cyazofamid]: 7.8.
Regarding `COc1cc2c(cc1OC)[C@@H]1C(=O)c3ccc4c(c3O[C@@H]1CO2)C=CC(C)(C)O4` [Deguelin], the TR in data set [1] was determined as 3.0. Besides, the SRbaseline in data set [2] (setting [4]) worked out at 6647.
With `CNC(=O)/C(=N/OC)c1ccccc1COc1cc(C)ccc1C` [Dimoxystrobin], the “contribution of individual chemical to 24DNP-EQchem” value in data set [3] (WWTP effluent samples (5 samples)) is listed as “up to 82%”. Moreover, the TR in data set [1] (setting [5]) amounted to 0.371. Further, the SRbaseline in data set [2] (setting [4]) is 120.
Turning to `CSC1=N[C@@](C)(c2ccccc2)C(=O)N1Nc1ccccc1` [Fenamidone], the TR in data set [1] (setting [5]) was determined as 1.9. The SRbaseline in data set [2] (setting [4]) was 18.5.
For `CC(C)(C)c1ccc(CCOc2ncnc3ccccc23)cc1` [Fenazaquin], in data set [1], the TR is recorded as 0.324. Moreover, the SRbaseline in data set [2] (setting [4]) came out at 3030.
On the same counts, the results for `Cc1nn(C)c(Oc2ccccc2)c1C=NOCc1ccc(C(=O)OC(C)(C)C)cc1` [Fenpyroximate] are 0.9 and 50002.
In the case of `CO/N=C(/C1=NOCCO1)c1ccccc1Oc1ncnc(Oc2ccccc2Cl)c1F` [Fluoxastrobin], in data set [2] (setting [4]), the SRbaseline is reported as 16.0.
Take `CC(C)Oc1cccc(NC(=O)c2ccccc2C(F)(F)F)c1` [Flutolanil]: the TR in data set [1] (setting [5]) is on record as 0.9. Further, in data set [2] (setting [4]), the SRbaseline was determined as 5.0.
Take `Oc1c(Cl)cc(Cl)c(Cl)c1Cc1c(O)c(Cl)cc(Cl)c1Cl` [Hexachlorophene]: the TR in data set [1] was determined as 2.0. Besides, the SRbaseline in data set [2] worked out at 77.9.
Regarding `CC1(C)CNC(=NN=C(/C=C/c2ccc(C(F)(F)F)cc2)/C=C/c2ccc(C(F)(F)F)cc2)NC1` [Hydramethylnon], the TR in data set [1] was 145.0; in data set [1] (listed as hydramethylnon), 145. In data set [2] (setting [4]), the SRbaseline worked out at 37.5.
`Cc1ccccc1C(=O)Nc1cccc(OC(C)C)c1` [Mepronil] returned a TR in data set [1] of 1.8. Also, the SRbaseline in data set [2] (setting [4]) is recorded as 4.1.
Consider `Oc1c(Cl)c(Cl)c(Cl)c(Cl)c1Cl` [Pentachlorophenol], for which the TR in data set [1] came to 1.2. The SRbaseline in data set [2] was determined as 8.0.
For `CO/C=C(/C(=O)OC)c1ccccc1COc1cccc(C(F)(F)F)n1` [Picoxystrobin], the TR in data set [1] stood at 4.0. The SRbaseline in data set [2] (setting [4]) was 240.6.
In the case of `COC(=O)N(OC)c1ccccc1COc1ccn(-c2ccc(Cl)cc2)n1` [Pyraclostrobin], in data set [3] (WWTP effluent sample EU018), the “contribution of individual chemical to 24DNP-EQbio” value was 0.62% and the “contribution of individual chemical to 24DNP-EQchem” value is 74%. Further, the TR in data set [1] (setting [5]) is 1.6. Moreover, the SRbaseline in data set [2] (setting [4]) turned out to be 468.8.
Take `CC(C)(C)c1ccc(CSc2cnn(C(C)(C)C)c(=O)c2Cl)cc1` [Pyridaben]: the SRbaseline in data set [2] (setting [4]) worked out at 8705.
As for `CCOCCc1ccc(OCCN=c2[nH]cnc(CC)c2Cl)c(C)c1C` [Pyrimidifen], in data set [1] (setting [5]), the TR is 0.659. In addition, the SRbaseline in data set [2] (setting [4]) is given as 13630.
In the case of `C=C(C)[C@H]1Cc2c(ccc3c2O[C@@H]2COc4cc(OC)c(OC)cc4[C@@H]2C3=O)O1` [Rotenone], the TR in data set [1] was 381. Besides, the SRbaseline in data set [2] (setting [4]) was determined as 17362.
On the same counts, the results for `CCc1nn(C)c(C(=O)NCc2ccc(C(C)(C)C)cc2)c1Cl` [Tebufenpyrad] are 0.32 and 10708.
Turning to `Cc1nc(C(F)(F)F)c(C(=O)Nc2c(Br)cc(OC(F)(F)F)cc2Br)s1` [Thifluzamide], in data set [1] (setting [5]), the TR worked out at 1.4. In addition, in data set [2] (setting [4]), the SRbaseline is given as 10.8.
On to `CON=C(C(=O)OC)c1ccccc1CON=C(C)c1cccc(C(F)(F)F)c1` [Trifloxystrobin], for which the SRbaseline in data set [2] (setting [4]) is recorded as 14.8.
